Reference: US20230167162A1 (TAMPERE UNIVERSITY FOUNDATION SR, published 2023)
These are yes or no findings as the source states them, for the method shown. Some results given as binding are weak or reduced against the parent protein; the word gives no strength. Tags and fused reporters may be left off the sequences shown.

Biological target: T1, His-tagged neuropilin-1 b1b2 domain (NRP-1 WT) (UniProt O14786 273-586, limits assumed, FAM (5-(and-6)-carboxyfluorescein) label, amine-reactive dye)
T1 construct: domain: b1b2 domain; also called WT NRP-1; wild type NRP-1; not shown: His-tag
T1 sequence (looked up): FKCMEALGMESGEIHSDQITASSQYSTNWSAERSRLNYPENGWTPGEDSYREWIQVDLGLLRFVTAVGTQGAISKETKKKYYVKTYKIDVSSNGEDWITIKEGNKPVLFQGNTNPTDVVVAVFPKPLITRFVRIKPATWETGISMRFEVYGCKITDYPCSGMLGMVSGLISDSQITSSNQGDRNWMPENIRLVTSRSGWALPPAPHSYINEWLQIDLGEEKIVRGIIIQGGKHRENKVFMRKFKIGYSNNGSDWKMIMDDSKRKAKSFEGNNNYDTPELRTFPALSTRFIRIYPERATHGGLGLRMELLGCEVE
Assay: ELISA: immobilised peptide (10 µg/well), FAM-labelled NRP-1, fluorescence intensity
Experimental: In vitro binding of DCN-tCRK and peptides to NRP-1 was analyzed using ELISA analysis. 96-well, black FLUOTRAC™ 600, high binding plates (Greiner Bio-One, Kremsmünster, Austria) were coated with […] of 100 μg/ml DCN-tCRK in PBS at 4° C. overnight. 10 μg/well RPARPAR (SEQ ID NO: 25) and […] (SEQ ID NO: 26) peptides were coated in parallel as a positive and negative control, respectively. BSA was used as an immobilization control. The plates were washed 3 times with phosphate buffered saline (PBS) and blocked for 1 h at 37° C. with 300 μl of blocking solution (1×PBS, 1% BSA, 0.1% Tween-20). His-tagged neuropilin-1 b1b2 domain (NRP-1 WT) and triple mutant NS346A-E348A-T349A neuropilin-1 b1b2 domain (NRP-1 mutant) were expressed and purified at the Protein Production and Analysis Facility at the Sanford Burnham Prebys Medical Discovery Institute (La Jolla, Calif.) as described previously (Teesalu et al., 2009, PNAS 106:16157-16162). The recombinant proteins NRP1 WT, NRP1 mutant, and DCN-tCRK were FAM (5-(and-6)-Carboxyfluorescein, #90024, Biotium Inc, CA, USA) labeled by mixing 1:10 ratio of amine-reactive FAM dye (diluted in DMSO final concentration 0.2%) and protein. […] After adding 100 μl PBS in each well, the plate was immediately read with top read mode using a fluorescence reader (Flex Station II, Molecular Devices; peak excitation=485 nm, peak emission=530 nm, cut off=515).

In the case of RPARPAR [RPARPAR peptide], the binding is reported as “binds”.
